According to patent US20240092848A1:
These are yes or no findings as the source states them, for the method shown. For part of these data: A result given as binding can be weak or reduced; the word gives no strength. For part of these data: Where a sequence is shown, tags or fusion partners need not be part of it. For part of these data: In cells and extracts the contact can be indirect. One block for each binder: values may come before it.

Legend:
HA-Gpr124 = assay: proximity ligation assay (anti-V5/anti-HA) in GPR124-/-;RECK-/- cells
HA-Fz5 = assay: as above
HA-Reck [1] = assay: as above
Gpr124 = assay: anti-V5 immunostaining of non-permeabilized GPR124-/-;RECK-/- cells
Reck = assay: as above
ReckΔCK4 = assay: proximity ligation assay (anti-V5/anti-HA) with HA-tagged Reck deletion variants
ReckΔCK5 = assay: as above
[2] = target: Fz5 (Mus musculus (Mouse)); assay: anti-V5 immunostaining of non-permeabilized GPR124-/-;RECK-/- cells expressing Fz5
HA-Reck [3] = assay: proximity ligation assay (anti-V5/anti-HA)
HA-Reck [4] = assay: recap of the PLA result of Example 1

B2: Wnt7a4A-V5 (ligand, not shown: small tags and cut ends)
chain: LGASIICNKIPGLAPRQRAICQSRPDAIIVIGEGSQMGLDECQFQFRNGRWNCSALGERTVFGKELKVGSREAAFTYAIIAAGVAHAITAACTQGNLSDCGCDKEKQGQYHRDEGWKWGGCSADIRYGIGFAKVFVDAREIKQNARTLMNLHNNEAGRKILEENMKLECKCHGVSGSCTTKTCWTTLPQFRELGYVLKDKYNEAVHVEPARASRNKRPTAAKIKKPLSYRAPMDTDLVYIEKSPNYCEEDPVTGSVGTQGRACNKTAPQASGCDLMCCGRGYNTHQYARVWQCNCKFHWCCYVKCNTCSERTEMYTCK
binding (HA-Reck [3]): binds

B3: Wnt7a1-278 (ligand, not shown: small tags and cut ends)
chain: LGASIICNKIPGLAPRQRAICQSRPDAIIVIGEGSQMGLDECQFQFRNGRWNCSALGERTVFGKELKVGSREAAFTYAIIAAGVAHAITAACTQGNLSDCGCDKEKQGQYHRDEGWKWGGCSADIRYGIGFAKVFVDAREIKQNARTLMNLHNNEAGRKILEENMKLECKCHGVSGSCTTKTCWTTLPQFRELGYVLKDKYNEAVHVEPVRASRNKRPTFLKIKKPLSYRKPMDTDLVYIEKSPNYC
binding (HA-Reck [4]): binds
binding (HA-Reck [1]): binds

Continued, values first:

binding (HA-Gpr124): no binding
binding (HA-Fz5): binds
binding (HA-Reck [1]): binds
binding (Gpr124): no binding
binding (Reck): binds
binding (ReckΔCK4): no binding
binding (ReckΔCK5): no binding
binding [2]: binds
B1: Wnt7a-V5 (ligand, not shown: small tags and cut ends)
chain: LGASIICNKIPGLAPRQRAICQSRPDAIIVIGEGSQMGLDECQFQFRNGRWNCSALGERTVFGKELKVGSREAAFTYAIIAAGVAHAITAACTQGNLSDCGCDKEKQGQYHRDEGWKWGGCSADIRYGIGFAKVFVDAREIKQNARTLMNLHNNEAGRKILEENMKLECKCHGVSGSCTTKTCWTTLPQFRELGYVLKDKYNEAVHVEPVRASRNKRPTFLKIKKPLSYRKPMDTDLVYIEKSPNYCEEDPVTGSVGTQGRACNKTAPQASGCDLMCCGRGYNTHQYARVWQCNCKFHWCCYVKCNTCSERTEMYTCK
modifications: palmitoleic acid at Serine 206 (precursor numbering)

binding (HA-Reck [3]): binds
B4: Wnt7aS206A (ligand, not shown: small tags and cut ends)
chain: LGASIICNKIPGLAPRQRAICQSRPDAIIVIGEGSQMGLDECQFQFRNGRWNCSALGERTVFGKELKVGSREAAFTYAIIAAGVAHAITAACTQGNLSDCGCDKEKQGQYHRDEGWKWGGCSADIRYGIGFAKVFVDAREIKQNARTLMNLHNNEAGRKILEENMKLECKCHGVAGSCTTKTCWTTLPQFRELGYVLKDKYNEAVHVEPVRASRNKRPTFLKIKKPLSYRKPMDTDLVYIEKSPNYCEEDPVTGSVGTQGRACNKTAPQASGCDLMCCGRGYNTHQYARVWQCNCKFHWCCYVKCNTCSERTEMYTCK
